These are yes or no findings as the source states them, for the method shown. Some entries that bind do so weakly or less than the wild type.
Tests used:
[1] = molecular target: flagellin (full-length, Bacillus subtilis) (B. subtilis) (UniProt P02968); assay: HDX-MS; proteins incubated without or with the binding partner, diluted in D2O-containing SEC buffer, stopped at different times, online pepsin digest; both purified
[2] = molecular target: T1, flagellin/FliS heterodimer (B. subtilis) (UniProt P02968+P39739); assay: SEC; co-purified or reconstituted complexes on size exclusion chromatography; peak fractions on Coomassie-stained SDS-PAGE; both purified
[3] = molecular target: flagellin (full-length, Bacillus subtilis) (B. subtilis) (UniProt P02968); assay: as above
[4] = molecular target: N72-flagellin (B. subtilis) (UniProt P02968); assay: as above
[5] = molecular target: T1, flagellin/FliS heterodimer (B. subtilis); assay: SAXS; small angle X-ray scattering in solution of FliW, flagellin/FliS and FliS/flagellin/FliW; crystal structures fitted into the shapes; both purified
[6] = molecular target: flagellin (full-length, Bacillus subtilis) (B. subtilis) (UniProt P02968); assay: crystal structure; sitting drop, 20 °C; flagellin/FliS at 50 mg/ml; two crystal forms (P2_1 at 1.5 Å, P22_12_1 at 2.1 Å); both purified
[7] = molecular target: flagellin (full-length, Bacillus subtilis) (B. subtilis) (UniProt P02968); assay: SEC-MALS; multi-angle light scattering of the co-purified flagellin/FliS complex; both purified
[8] = molecular target: flagellin (full-length, Bacillus subtilis) (B. subtilis) (UniProt P02968); assay: SAXS; small angle X-ray scattering in solution of FliW, flagellin/FliS and FliS/flagellin/FliW; crystal structures fitted into the shapes; both purified

Sequences of proteins named here, by UniProt entry; tags and fusion partners are left off. A change or cut given only in a name is not applied to a line headed by its entry. Residues count along the entry.
UniProt P02968: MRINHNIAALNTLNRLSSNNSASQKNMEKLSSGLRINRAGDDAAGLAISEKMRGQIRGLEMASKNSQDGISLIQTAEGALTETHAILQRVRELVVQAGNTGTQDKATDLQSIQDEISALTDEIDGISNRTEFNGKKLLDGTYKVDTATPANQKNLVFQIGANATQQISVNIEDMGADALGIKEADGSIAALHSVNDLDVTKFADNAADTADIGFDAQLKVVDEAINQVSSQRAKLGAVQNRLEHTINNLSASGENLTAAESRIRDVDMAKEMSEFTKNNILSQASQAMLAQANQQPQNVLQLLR
N72-flagellin: residues 1-72 of P02968

| binding [1] | binding [2] | binding [3] | binding [4] | binding [5] | binding [6] | binding [7] | binding [8] | Binder |
| --- | --- | --- | --- | --- | --- | --- | --- | --- |
| binds | binds | binds | binds | binds | – | – | – | FliW (Bacillus subtilis) (protein, UniProt P96503 1-143) MIIHTKYHGQMNIKEEQIILFESGIPGFLEEKQFVILPLSEDSPFVALQSVTSENLAFIVVSPFIFFKNYEFDLDESTAELLDIDNIQDVEVMTILTMAEPFEKSTANLLAPIIVNRKNMMAKQVVLHDSSYTTKHPIGGESC |
| – | – | binds | – | – | binds | binds | binds | FliS (Bacillus subtilis) (protein, UniProt P39739 1-133) MAIQNPYTAYQQNSVNTATPGELTLMLYNGCLKFIRLAAQAIENDDMERKNENLIKAQNIIQELNFTLNRNIELSASMGAMYDYMYRRLVQANIKNDTGMLAEVEGYVTDFRDAWKQAIQSERKDRHGSGGIA |
